According to patent publication US7842856B2, “Herbicide resistance gene, compositions and methods” (The Board of Trustees of the University of Illinois, priority 2005, dated 2010):

Experiments:
[1] = tested on: A. tuberculatus F1(R) hybrid (maternal parent R); assay: Herbicide dose-response on whole plants, F1(R) line; type: in vivo, Amaranthus tuberculatus (waterhemp); details: degree of dominance from log(GR50)
[2] = tested on: A. tuberculatus F1(S) hybrid (maternal parent S); assay: Herbicide dose-response on whole plants, F1(S) line; type: in vivo, Amaranthus tuberculatus (waterhemp); details: degree of dominance from log(GR50)

CCOC(=O)C(C)OC(=O)c1cc(Oc2ccc(C(F)(F)F)cc2Cl)ccc1[N+](=O)[O-] (racemic) [Lactofen, (±)-2-ethoxy-1-methyl-2-oxoethyl 5-{2-chloro-4-(trifluoromethyl)phenoxy}-2-nitrobenzoate]
Dominance F1(R) ([1]; 10 DAT): −0.06 | Dominance F1(R) ([1]; 15 DAT): 0.72 | Dominance F1(S) ([2]; 10 DAT): 0.56 | Dominance F1(S) ([2]; 15 DAT): 0.76
